Experimental data: PMC4408008
These are yes or no findings as the source states them, for the method shown. Binding seen in cells or lysates may run through a third protein. These calls come from enrichment with a bait or labelling near it, and not all partners need be listed.

By UniProt entry, the sequences of proteins in these tests, tags left out.
UniProt Q96EB6: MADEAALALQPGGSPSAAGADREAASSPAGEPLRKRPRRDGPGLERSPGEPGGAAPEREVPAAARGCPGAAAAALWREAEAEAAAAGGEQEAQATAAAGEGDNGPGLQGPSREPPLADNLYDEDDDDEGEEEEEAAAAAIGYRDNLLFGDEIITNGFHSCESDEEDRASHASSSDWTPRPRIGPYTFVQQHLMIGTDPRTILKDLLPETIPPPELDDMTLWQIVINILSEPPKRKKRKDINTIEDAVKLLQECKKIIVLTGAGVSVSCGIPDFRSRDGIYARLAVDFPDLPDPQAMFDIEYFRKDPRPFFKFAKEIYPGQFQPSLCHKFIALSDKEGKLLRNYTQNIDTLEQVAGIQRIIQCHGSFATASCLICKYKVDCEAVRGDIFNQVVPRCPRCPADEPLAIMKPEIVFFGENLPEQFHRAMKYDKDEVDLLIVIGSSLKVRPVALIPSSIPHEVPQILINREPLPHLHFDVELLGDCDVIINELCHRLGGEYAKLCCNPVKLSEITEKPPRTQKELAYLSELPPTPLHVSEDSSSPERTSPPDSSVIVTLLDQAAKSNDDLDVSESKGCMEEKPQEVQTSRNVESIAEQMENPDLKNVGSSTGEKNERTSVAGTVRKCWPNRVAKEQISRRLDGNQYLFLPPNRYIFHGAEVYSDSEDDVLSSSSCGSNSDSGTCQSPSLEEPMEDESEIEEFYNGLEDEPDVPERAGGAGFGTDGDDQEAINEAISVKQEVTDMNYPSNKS
UniProt Q13263: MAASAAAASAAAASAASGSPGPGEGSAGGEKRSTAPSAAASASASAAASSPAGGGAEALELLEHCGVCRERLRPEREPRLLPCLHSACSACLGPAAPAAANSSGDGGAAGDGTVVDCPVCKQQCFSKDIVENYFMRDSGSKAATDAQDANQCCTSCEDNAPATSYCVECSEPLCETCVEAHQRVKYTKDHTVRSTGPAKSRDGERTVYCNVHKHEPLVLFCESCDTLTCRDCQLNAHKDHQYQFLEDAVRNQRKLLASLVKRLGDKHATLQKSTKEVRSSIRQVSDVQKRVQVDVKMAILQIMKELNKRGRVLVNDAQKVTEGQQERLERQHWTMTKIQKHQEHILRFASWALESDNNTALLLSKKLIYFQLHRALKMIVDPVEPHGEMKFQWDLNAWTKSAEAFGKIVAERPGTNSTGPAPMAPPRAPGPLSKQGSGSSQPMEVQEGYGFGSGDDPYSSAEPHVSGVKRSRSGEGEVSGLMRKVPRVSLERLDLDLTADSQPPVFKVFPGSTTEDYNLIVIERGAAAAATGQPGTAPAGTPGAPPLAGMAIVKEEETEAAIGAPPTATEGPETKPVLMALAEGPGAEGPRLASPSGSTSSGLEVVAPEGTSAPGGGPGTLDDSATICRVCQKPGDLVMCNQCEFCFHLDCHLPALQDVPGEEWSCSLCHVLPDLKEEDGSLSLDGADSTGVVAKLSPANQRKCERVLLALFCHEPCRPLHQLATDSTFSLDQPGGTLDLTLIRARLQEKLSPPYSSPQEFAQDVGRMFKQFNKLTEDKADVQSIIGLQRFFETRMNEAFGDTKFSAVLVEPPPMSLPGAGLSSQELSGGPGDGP

Biological target: FLAG-tagged full-length (FL) SIRT1 (UniProt Q96EB6)
Test: affinity purification with mass spectrometry; immunoprecipitation of FLAG-tagged SIRT1 from HEK293T cells followed by mass spectrometric analysis

With “Krüppel associated box (KRAB)-associated protein 1 (KAP1), endogenous (from UniProt Q13263 1-835)” as the substance, how does the binding read?
The binding was “binds”.
